Results from article PMC3977970.
Numbering of substitutions follows the chain as printed. No constants are given. Whether binding was seen depends on the method and setting. In cells and extracts the contact can be indirect. Some binding calls cover weakened binding; strength is not graded here. Where a sequence is shown, tags or fusion partners need not be part of it.

What was measured:
[1] = target: T1, FLAG-PTPMT1 (wildtype) (human) (UniProt Q8WUK0); assay: co-IP; V5-MK-STYX and FLAG-PTPMT1 co-transfected in 293FT cells; lysate 48 h after transfection; anti-FLAG antibody 2 h at 4°C, Protein G beads; washes with 1% NP40 in PBS and TNE buffer; immunoblot
T1 sequence: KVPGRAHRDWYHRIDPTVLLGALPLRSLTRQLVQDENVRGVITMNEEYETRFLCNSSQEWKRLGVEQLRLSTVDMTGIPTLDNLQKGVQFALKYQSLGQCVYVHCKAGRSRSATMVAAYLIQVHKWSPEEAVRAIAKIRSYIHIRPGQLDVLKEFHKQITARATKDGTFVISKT

[2] = target: T2, FLAG-PTPMT1 C132S (human) (UniProt Q8WUK0); assay: as above
T2 sequence: T1 sequence with C105S

“V5-MK-STYX (from UniProt Q9Y6J8-1 1-313)” was tested, and the binding [1] was “binds” and the binding [2] was “binds”.
